{"source": "paper PMC6214143", "about": "“Oncotoxic Properties of Serotonin Transporter Inhibitors and 5-HT1A Receptor Ligands” (International Journal of Molecular Sciences, 2018)", "key": {"Balb/c 3T3 cells": {"tested_on": "Balb/c 3T3 cells", "assay": "MTT cell survival assay, Balb/c 3T3 cells (normal reference)", "format": "cell-based, murine", "conditions": "Mus musculus, BALB/c3T3, 72 h", "experimental": "(§1) The effects of the test compounds on the survival of PC-3, SH-SY5Y, Balb/c 3T3 and HEK293 cells was measured with the aid of the 3-(4,5-dimethylthiazol-2-yl)-2,5-diphenyltetrazolium bromide (MTT) assay. The cells were cultured in 96-well plates (100 μL/well) for 72 h. The optimized initial densities were the following: for PC-3—60,000 cells/mL, SH-SY5Y and Balb/c 3T3—50,000 cells/mL.\n(§2) After 20 h preincubation and evaluation of the uniformity of cell growth, the medium was aspirated, and the respective solutions of the substances were added to the culture medium. Control cells were only treated the solvent used for the compounds and medium alone.\n(§3) MTT (3-(4,5-dimethylthiazol-2-yl)-2,5-diphenyltetrazolium bromide) is reduced by intracellular dehydrogenase, which is present only in live cells (mitochondria), to purple, water-insoluble formazan. After it is dissolved, formazan absorbance of the resulting solution is directly proportional to the number of living cells in culture.\nAfter appropriate incubation, the culture medium was removed. Next, 50 μL of MTT solution (0.5 mg/mL) diluted in PBS to 0.5 mg/mL was added to each well. […] After a 24-hour incubation at 4 °C in the dark, the absorbance of the dissolved formazan was measured at 570 nm (the maximum absorption of formazan) and at 690 nm (reference wavelength) using a Power Wave XS microplate spectrophotometer (Bio-Tek, Winooski, VT, USA). […]"}, "SH-SY5Y cells": {"tested_on": "SH-SY5Y cells", "assay": "MTT cell survival assay, SH-SY5Y cells", "format": "cell-based", "conditions": "Homo sapiens, 72 h", "experimental": "as §1, §2, §3\n(§4) After appropriate incubation, the culture medium was removed. Next, 50 μL of MTT solution (0.5 mg/mL) diluted in PBS to 0.5 mg/mL was added to each well. […] The test was performed in three to five independent experiments with four times the measured concentration tested. The cell survival percentage was determined as % of controls, which were cells treated with the test compound solvent at the highest concentration."}, "PC-3 cells": {"tested_on": "PC-3 cells", "assay": "MTT cell survival assay, PC-3 cells", "format": "cell-based", "conditions": "Homo sapiens, 72 h", "experimental": "as §1, §2, §3, §4"}}, "data": [{"smiles": "CNCCC(Oc1ccc(C(F)(F)F)cc1)c1ccccc1", "note": "(stereo not drawn) [Fluoxetine, fluoxetine, reference compound]", "values": [{"measurement": "IC50", "setting": "Balb/c 3T3 cells", "value": "26.2 ± 2.71", "unit": "µM"}, {"measurement": "IC50", "setting": "SH-SY5Y cells", "value": "25.3 ± 4.41", "unit": "µM"}, {"measurement": "IC50", "setting": "PC-3 cells", "value": "17.1 ± 1.38", "unit": "µM"}]}]}
